We go through 14 compounds from the supplement of paper PMC10973195.

What all share (conditions): 1 µM, treatment time 3 days
Assay [1] deals with rat primary cerebellar neuron-glia coculture. The assay is described as follows: microglia count (IB4+) per image field (cells per field); higher = more microglia.
Assay [2] has the same test system. The assay can be described thus: live neuron count (NeuO+) per image field (cells per field); higher = more surviving neurons.
The test system is the same in assay [3]. The assay can be described thus: median microglial FormFactor (circularity) per image (dimensionless (0-1)); higher = rounder, more ameboid microglia.
The test system is the same in assay [4]. The assay can be described thus: necrotic cell count (DRAQ7+) per image field (cells per field); higher = more necrosis.

Molecules are shown by their SMILES. ± gives the standard deviation of the averaged measurements. The list shows a part of the results. Values are raw readings; no control value is given beside them.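 The test system is a mixed culture of neurons, microglia and astrocytes in which bacterial LPS triggers microglia-driven neuron loss, modelling inflammatory neurodegeneration. Each compound was compared with vehicle (DMSO) wells on the same plates, and the SYK inhibitor BAY61-3606 served as the reference neuroprotective control.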

On to `COC(=O)C1=C(C)NC(C)=C(C(=O)OC)C1c1ccccc1[N+](=O)[O-]`, for which the figures for the microglia count in assay [1] (LPS 0 ng/mL) and in assay [1] (LPS 100 ng/mL) were 162 ± 46 and 431 ± 70, respectively. For the same compound, the live neuron count was 2480 ± 280 in assay [2] (LPS 0 ng/mL) and 297 ± 240 in assay [2] (LPS 100 ng/mL). For the same compound, the “median microglial FormFactor” value in assay [3] (LPS 0 ng/mL) was found to be 0.551 ± 0.081; in assay [3] (LPS 100 ng/mL), 0.693 ± 0.052.
For `COc1ccc(-c2nc(-c3cccs3)[nH]c2-c2ccc(OC)cc2)cc1`, the microglia count is 172 ± 52 in assay [1] (LPS 0 ng/mL) and 572 ± 130 in assay [1] (LPS 100 ng/mL). Further, the live neuron count in assay [2] (LPS 0 ng/mL) amounted to 2650 ± 510; in assay [2] (LPS 100 ng/mL), 581 ± 540. The “median microglial FormFactor” value in assay [3] (LPS 0 ng/mL) is 0.554 ± 0.083; in assay [3] (LPS 100 ng/mL) it was 0.495 ± 0.087.
As for `O=C(Nc1cc(C2CC2)[nH]n1)c1ccc(Br)cc1`, the microglia count was 267 ± 370 in assay [1] (LPS 0 ng/mL) and 408 ± 81 in assay [1] (LPS 100 ng/mL). Moreover, the live neuron count in assay [2] (LPS 0 ng/mL) amounted to 2740 ± 420; in assay [2] (LPS 100 ng/mL), 324 ± 340. Besides, the “median microglial FormFactor” value in assay [3] (LPS 0 ng/mL) came out at 0.549 ± 0.082; in assay [3] (LPS 100 ng/mL) it was 0.716 ± 0.072.
As for `N#Cc1cn(-c2c[nH]n(-c3cc(N4CC(F)(F)C4)ncn3)c2=O)cn1`, the microglia count stood at 156 ± 40 in assay [1] (LPS 0 ng/mL) and 449 ± 100 in assay [1] (LPS 100 ng/mL). Further, the live neuron count in assay [2] (LPS 0 ng/mL) is 2580 ± 470; in assay [2] (LPS 100 ng/mL), 561 ± 490. The “median microglial FormFactor” value in assay [3] (LPS 0 ng/mL) worked out at 0.506 ± 0.078; in assay [3] (LPS 100 ng/mL) it was 0.66 ± 0.097.
As to `O=C1NCCCc2c1oc1ccc(O)cc21`, the microglia count was 172 ± 27 in assay [1] (LPS 0 ng/mL) and 431 ± 90 in assay [1] (LPS 100 ng/mL). Further, the live neuron count amounted to 3080 ± 380 in assay [2] (LPS 0 ng/mL) and 485 ± 480 in assay [2] (LPS 100 ng/mL). The “median microglial FormFactor” value came to 0.491 ± 0.09 in assay [3] (LPS 0 ng/mL) and 0.634 ± 0.074 in assay [3] (LPS 100 ng/mL).
Take `O=C(Nc1cccnc1)c1ccc(Cl)cc1`: the figures for the microglia count in assay [1] (LPS 0 ng/mL) and in assay [1] (LPS 100 ng/mL) were 205 ± 140 and 474 ± 160, respectively. Also, the live neuron count was determined as 2690 ± 400 in assay [2] (LPS 0 ng/mL) and 383 ± 610 in assay [2] (LPS 100 ng/mL). Also, the “median microglial FormFactor” value turned out to be 0.538 ± 0.092 in assay [3] (LPS 0 ng/mL) and 0.653 ± 0.089 in assay [3] (LPS 100 ng/mL).
Regarding `O=C(N[C@@H](c1ccccc1)[C@@H]1CCCCN1)c1cccc(C(F)(F)F)c1Cl`, the results for the microglia count in assay [1] (LPS 0 ng/mL) and in assay [1] (LPS 100 ng/mL) were 153 ± 51 and 428 ± 60, respectively. In addition, the results for the live neuron count in assay [2] (LPS 0 ng/mL) and in assay [2] (LPS 100 ng/mL) were 2580 ± 490 and 471 ± 420, respectively. Besides, the “median microglial FormFactor” value in assay [3] (LPS 0 ng/mL) is 0.542 ± 0.086; in assay [3] (LPS 100 ng/mL) it was 0.674 ± 0.088.
Turning to `COC(=O)Nc1ccc2[nH]cc(CCNC(C)=O)c2c1`, the results for the microglia count in assay [1] (LPS 0 ng/mL) and in assay [1] (LPS 100 ng/mL) were 158 ± 27 and 449 ± 130, respectively. Besides, the values for the live neuron count in assay [2] (LPS 0 ng/mL) and in assay [2] (LPS 100 ng/mL) were 2600 ± 540 and 260 ± 310, respectively. Also, the “median microglial FormFactor” value was 0.534 ± 0.087 in assay [3] (LPS 0 ng/mL) and 0.686 ± 0.11 in assay [3] (LPS 100 ng/mL).
As to `c1ccc(-c2ccc(C(c3ccccc3)n3ccnc3)cc2)cc1` (stereo unspecified), the microglia count in assay [1] (LPS 0 ng/mL) is 159 ± 150; in assay [1] (LPS 100 ng/mL), 548 ± 85. Moreover, the figures for the necrotic cell count in assay [4] (LPS 0 ng/mL) and in assay [4] (LPS 100 ng/mL) were 285 ± 110 and 195 ± 52, respectively. The results for the live neuron count in assay [2] (LPS 0 ng/mL) and in assay [2] (LPS 100 ng/mL) were 2380 ± 580 and 2670 ± 490, respectively. Moreover, the results for the “median microglial FormFactor” value in assay [3] (LPS 0 ng/mL) and in assay [3] (LPS 100 ng/mL) were 0.729 ± 0.12 and 0.509 ± 0.042, respectively.
Turning to `COc1cc2ncnc(Nc3ccc(Oc4ccccc4)cc3)c2cc1OC`, the values for the microglia count in assay [1] (LPS 0 ng/mL) and in assay [1] (LPS 100 ng/mL) were 168 ± 27 and 441 ± 100, respectively. Besides, the necrotic cell count in assay [4] (LPS 0 ng/mL) is 74.5 ± 30; in assay [4] (LPS 100 ng/mL) it was 727 ± 210. Further, the results for the live neuron count in assay [2] (LPS 0 ng/mL) and in assay [2] (LPS 100 ng/mL) were 2610 ± 480 and 486 ± 470, respectively. Also, the “median microglial FormFactor” value in assay [3] (LPS 0 ng/mL) amounted to 0.552 ± 0.071; in assay [3] (LPS 100 ng/mL), 0.604 ± 0.14.
For the compound `FC(F)(F)c1c(N2CCC(c3ccccc3)CC2)ccn2c(CC3CC3)nnc12`, the microglia count in assay [1] (LPS 0 ng/mL) was found to be 162 ± 38; in assay [1] (LPS 100 ng/mL), 457 ± 120. Besides, the necrotic cell count in assay [4] (LPS 0 ng/mL) amounted to 85.7 ± 30; in assay [4] (LPS 100 ng/mL), 1060 ± 290. Besides, the live neuron count in assay [2] (LPS 0 ng/mL) amounted to 2700 ± 520; in assay [2] (LPS 100 ng/mL), 247 ± 210. For the same compound, the “median microglial FormFactor” value is 0.557 ± 0.087 in assay [3] (LPS 0 ng/mL) and 0.64 ± 0.059 in assay [3] (LPS 100 ng/mL).
For `O=C(CSc1nc2ccc(N3C(=O)c4ccccc4C3=O)cc2s1)Nc1cccc(Cl)c1`, the microglia count in assay [1] (LPS 0 ng/mL) was determined as 152 ± 38; in assay [1] (LPS 100 ng/mL), 411 ± 78. For the same compound, the necrotic cell count in assay [4] (LPS 0 ng/mL) came to 96.7 ± 42; in assay [4] (LPS 100 ng/mL) it was 1050 ± 260. The live neuron count in assay [2] (LPS 0 ng/mL) came to 2660 ± 400; in assay [2] (LPS 100 ng/mL), 238 ± 180. Besides, the “median microglial FormFactor” value in assay [3] (LPS 0 ng/mL) was determined as 0.532 ± 0.083; in assay [3] (LPS 100 ng/mL), 0.674 ± 0.061.
As for `CCC[C@@H](NC(=O)N1C(=O)C(CC)(CC)[C@@H]1Oc1ccc(C(=O)N2CCN(C)CC2)cc1)c1ccc2c(c1)OCO2`, the microglia count in assay [1] (LPS 0 ng/mL) is 158 ± 54; in assay [1] (LPS 100 ng/mL) it was 430 ± 73. For the same compound, the results for the necrotic cell count in assay [4] (LPS 0 ng/mL) and in assay [4] (LPS 100 ng/mL) were 93.3 ± 25 and 954 ± 340, respectively. Also, the live neuron count in assay [2] (LPS 0 ng/mL) was found to be 2380 ± 370; in assay [2] (LPS 100 ng/mL), 603 ± 660. The “median microglial FormFactor” value in assay [3] (LPS 0 ng/mL) came to 0.536 ± 0.086; in assay [3] (LPS 100 ng/mL), 0.67 ± 0.089.
As for `O=c1ncn2nc(Sc3ccc(F)cc3F)ccc2c1-c1c(Cl)cccc1Cl`, the figures for the microglia count in assay [1] (LPS 0 ng/mL) and in assay [1] (LPS 100 ng/mL) were 316 ± 420 and 486 ± 84, respectively. In addition, the necrotic cell count in assay [4] (LPS 0 ng/mL) worked out at 73.7 ± 21; in assay [4] (LPS 100 ng/mL) it was 399 ± 230. In addition, the live neuron count in assay [2] (LPS 0 ng/mL) is 2300 ± 590; in assay [2] (LPS 100 ng/mL), 1520 ± 840. The “median microglial FormFactor” value in assay [3] (LPS 0 ng/mL) worked out at 0.533 ± 0.077; in assay [3] (LPS 100 ng/mL), 0.572 ± 0.069.
